# The campaign covered roughly 1,600 compounds. About 990 (62%) were called active. The set was probably picked from earlier hits. Inconclusive means that the source gave no clear call. Such entries were picked first, then a sample of the others. Calls follow the shape of the dose curve; as a rule, active = well fitted inhibition curve with a large enough effect; inconclusive = small, poorly fitted or top-dose-only effect; inactive = no such curve, though single readings can be large or run the other way. Potencies beside an inconclusive call are fits to weak or partial responses and may not hold up. Numbered stars: 1 amine (or outer) side, 2 acyl side, 3 side chain; on linkers, the order of the positions; unused ones are H or OH. Square brackets hold non-standard residues; d marks the D form. Peptide text beside a SMILES is read from it. X3 = CC[C@H](C)[C@H](OC(=O)[C@@H](C)[C@@H](CC)N[*:1])C(=O)[*:2]; X1 = CC(N[*:1])C(=O)C(C)(C)C(=O)[*:2]; NMeF = CN[C@@H](Cc1ccccc1)C(=O)O; NMeL = CN[C@@H](CC(C)C)C(=O)O; NMeV = CN[C@H](C(=O)O)C(C)C; NMeA = CN[C@@H](C)C(=O)O
# Assay: qHTS for Inhibitors of TGF-b: Confirmation of Cherry Picks; also: nearly all actives have a fitted effect of over 65% in size
# Conditions: HepG2 CAGA-GFP TGF-b reporter, GFP fluorescence, 18 h, cells stimulated with TGF-beta, 500 pg/mL; activity, negative = inhibition: at 46.1 µM (top of the series)
# Method in brief: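 HEPG2 CAGA-GFP, 1000 cells/well, DMEM + 1% FBS; 2 h settle at 37 degrees C; cpd pinned; rTGF-beta 500 pg/mL final; 18 h 37 degrees C; GFP imaging ex488/em500-530; %Activity vs unstimulated and stimulated +DMSO.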
# % is scaled to controls: 0 for no effect and ±100 for the full control effect; potency is read from the fitted curve at half-maximal effect.
SMILES,Potency,"activity, negative = inhibition"
O=C(COC(=O)CC(c1ccccc1)c1ccccc1)NCc1ccc(Cl)cc1,"inconclusive: 29.1 µM [inhibitor, single point]",
COc1ccc(-c2cc(-c3ccccc3O)[nH]n2)cc1,"inconclusive: 18.4 µM [inhibitor, single point]",
CN(C)c1cccc(/C=C(\C#N)c2ccccc2)c1,"inconclusive: 32.6 µM [inhibitor, single point]",
Cc1ccccc1NC(=O)c1ccc(Nc2c([N+](=O)[O-])cc([N+](=O)[O-])c3ccccc23)cc1,"inconclusive: 4.61 µM [inhibitor, full curve]",
CCCc1nnc(NC(=O)C(CC)OC(=O)c2cc(C)nc3ccccc23)s1 (stereo not drawn),"inconclusive: 18.4 µM [inhibitor, single point]",
Cc1cc(C)nc(/N=C(\N)Nc2ccccc2-c2ccccc2)n1,"inconclusive: 29.1 µM [inhibitor, single point]",
Cc1ccc(NS(=O)(=O)c2ccc(OCC(=O)Nc3cccc([N+](=O)[O-])c3)c(C)c2)cc1,,inactive: -77.8%
CC(=O)Nc1ncnc2c1c(-c1ccc(Cl)cc1)nn2C(C)(C)C,active: 2.59 µM,
COc1cc(CN2CCC(C(=O)NC(c3ccc(F)cc3)c3ccc4ccccc4n3)CC2)cc(OC)c1 (stereo not drawn),"inconclusive: 29.1 µM [inhibitor, single point]",
Oc1ccccc1-c1nc2cnccn2c1Nc1ccc2c(c1)OCCO2,"inconclusive: 20.6 µM [inhibitor, single point]",
COc1ccc(CNc2cccc3[nH]c(C(F)(F)F)nc23)cc1OC,"inconclusive: 29.1 µM [inhibitor, single point]",
COC(=O)c1sccc1NC(=O)CN1CCN(c2ccc(F)cc2)CC1,"inconclusive: 23.1 µM [inhibitor, single point]",
COCCN(Cc1cc2cc3c(cc2nc1Cl)OCO3)C(=O)c1ccc(C)cc1,"inconclusive: 23.1 µM [inhibitor, partial curve, poor fit]",
Cc1nn2c(NCc3ccccn3)c3c(nc2c1-c1ccccc1)CCC3,"inconclusive: 29.1 µM [inhibitor, single point]",
CCOc1c(Cl)cc(/C=N/NC(N)=S)cc1OC,"inconclusive: 14.6 µM [inhibitor, single point]",
CCOC(=O)CNC(=O)CSc1nnc(Cn2c(=O)sc3ccccc32)n1-c1ccccc1C,"inconclusive: 29.1 µM [inhibitor, single point]",
COc1ccc(CNC(=O)C[C@H]2C[C@H](C(=O)N3CCOCC3)[C@@]3(CCC4CCCC4)c4[nH]c5cc(-c6ccco6)ccc5c4CCN3C2=O)cc1OC,active: 6.51 µM,
C/C(CC(=O)Nc1ccc(Cl)c(C(F)(F)F)c1)=N\NC(=O)c1ccccc1O,"inconclusive: 29.1 µM [inhibitor, single point]",
COc1c(C(C)C)oc2cc3oc(=O)ccc3cc12,"inconclusive: 5.17 µM [inhibitor, full curve]",
Cc1ccc(NC(=O)C(C)c2ccc(-c3ccccc3)c(F)c2)cc1 (stereo not drawn),,inactive: -10.1%
CCOC(=O)c1sc(NC(=O)Nc2ccc(Cl)cc2)cc1C,"inconclusive: 29.1 µM [inhibitor, single point]",
CC(=O)Nc1nc(C)c(-c2csc(Nc3cccc([N+](=O)[O-])c3)n2)s1,,inactive: -2.73%
O=C(NCc1nnc(SCc2ccc(F)cc2)n1-c1ccc(F)cc1)C12CC3CC(CC(C3)C1)C2,"inconclusive: 16.4 µM [inhibitor, single point]",
Cc1cccc(NC(=O)/C=C/c2ccc([N+](=O)[O-])s2)c1,"inconclusive: 6.51 µM [inhibitor, single point]",
Cc1cccc(N2CCN(C(=O)c3cn(C)c(=O)c4c3c3ccccc3n4C)CC2)c1C,"inconclusive: 29.1 µM [inhibitor, single point]",
COc1ccc(NC(=O)CNC(c2ccccc2)c2ccccc2)cc1Cl,"inconclusive: 25.9 µM [inhibitor, single point]",

SMILES,Potency,"activity, negative = inhibition"
Clc1cccc(Nc2nc(-c3ccncc3)nc3ccccc23)c1,"inconclusive: 29.1 µM [inhibitor, single point]",
COc1ccccc1NS(=O)(=O)c1cccc(NC(=O)Nc2ccccc2)c1,"inconclusive: 16.4 µM [inhibitor, single point]",
S=C(Nc1ccc(Br)cc1)NC1CCCCC1,"inconclusive: 29.1 µM [inhibitor, single point]",
CCCCC[C@H]1CN(CCc2ccccc2)C(=O)[C@@H]1CC(=O)NCc1ccc(OC)cc1,"inconclusive: 29.1 µM [inhibitor, single point]",
Oc1ccc(CN2CCC(Cc3ccccc3)CC2)c2cccnc12,"inconclusive: 20.6 µM [inhibitor, partial curve]",
CCN(CC)S(=O)(=O)c1ccc2oc(SCC(=O)Nc3cc(C)on3)nc2c1,"inconclusive: 20.6 µM [inhibitor, single point]",
O=C(CSc1nc(-c2ccc(Cl)cc2)cs1)Nc1cccc([N+](=O)[O-])c1,"inconclusive: 29.1 µM [inhibitor, single point]",
C/C=C1\COC(C(=O)NCc2ccccc2)(C(F)(F)F)C=C1C=C1CCCCC1 (stereo not drawn),"inconclusive: 23.1 µM [inhibitor, single point]",
COc1ccc2cc(-c3ccccc3F)ncc2c1,,inactive: -8.6%
CC[C@H](C)[C@@H]1OC(=O)[C@@H](C)[C@@H](CC)NC(=O)[C@H](C)N(C)C(=O)C(C)(C)C(=O)C(C)NC(=O)[C@H](Cc2ccccc2)N(C)C(=O)[C@H](C(C)C)N(C)C(=O)CNC(=O)[C@H](CC(C)C)N(C)C(=O)CNC1=O (stereo partly drawn) (cyclo(G[NMeL]G[NMeV][NMeF][X1][NMeA][X3])),active: 7.31 µM,
O=C1OCCN1C(=O)[C@H]1[C@H](c2ccc([N+](=O)[O-])cc2)C(c2cccc(Cl)c2)=NN1c1ccccc1,,inactive: -26.7%
COc1ccc(OC)c(C2SCCN2S(=O)(=O)c2cccc(C(F)(F)F)c2)c1 (stereo not drawn),"inconclusive: 13 µM [inhibitor, partial curve]",
O=C(c1ccc(F)cc1)C(CN1CCOCC1)c1ccccc1 (stereo not drawn),active: 7.31 µM,
CCN1CCN(Cc2ccc(NC(=O)c3cc(NC(=O)c4cncc(-c5ccc(C#N)cc5)c4)cc(OC)c3)cc2C(F)(F)F)CC1,"inconclusive: 29.1 µM [inhibitor, single point]",
CC1=C(CO)C(=O)OC([C@@H](C)C2CC[C@H]3C4C[C@H]5O[C@]56[C@@H](O)C=CC(=O)[C@]6(C)C4CC[C@]23C)C1 (stereo partly drawn),active: 0.58 µM,
Cc1ccc(Cl)cc1NC(=O)c1cc2ccccc2cc1O,active: 2.59 µM,
CCCS(=O)(=O)Nc1ccc(Nc2c3ccccc3nc3ccccc23)c(OC)c1,"inconclusive: 29.1 µM [inhibitor, single point]",
COc1cc(/C=N/n2cc(-c3ccccc3)[nH]c2=S)cc(OC)c1O,active: 14.6 µM,
COc1ccc(C(=O)NN(C)c2nc(C(F)(F)F)nc3ccccc23)cc1,"inconclusive: 1.46 µM [inhibitor, full curve]",
CC1CCN(C(=O)c2[nH]cnc2C(=O)NCc2ccc(CNC(=O)OC(C)(C)C)cc2)CC1,"inconclusive: 14.6 µM [inhibitor, partial curve]",
COc1ccc(C(=O)C(CCC(CNC(C)(C)C)C(=O)c2ccc(OC)cc2)CNC(C)(C)C)cc1 (stereo not drawn),"inconclusive: 29.1 µM [inhibitor, single point]",
O=C(NCc1ccncc1)c1ccc2nc(Cc3ccccc3F)oc2c1,"inconclusive: 16.4 µM [inhibitor, single point]",
CCc1nc2ccc(C(=O)N3CCN(c4cccc(C(F)(F)F)c4)CC3)cc2nc1CC,"inconclusive: 18.4 µM [inhibitor, single point]",
O=C1C(NS(=O)(=O)c2cccs2)=C(N2CCN(Cc3ccccc3)CC2)C(=O)c2ccccc21,"inconclusive: 18.4 µM [inhibitor, single point]",
CCCn1nc2cc(C(=O)NCCc3cccs3)ccc2c1OCC,,inactive: -26.3%
CNC(=S)N/N=C/C1=CCC2CC1C2(C)C (stereo not drawn),"inconclusive: 11.6 µM [inhibitor, partial curve]",

SMILES,Potency,"activity, negative = inhibition"
Cc1nc2ccc(S(=O)(=O)NCC(=O)Nc3cccc(F)c3)cc2s1,,inactive: -8.02%
CN(C)S(=O)(=O)N1CCc2ccc(NC(=O)c3ccc(C(F)(F)F)cc3)cc2C1,,inactive: -0.297%
COc1cccc(Nc2nc(NCC3CCCO3)c3ccccc3n2)c1 (stereo not drawn),"inconclusive: 18.4 µM [inhibitor, single point]",
C[C@H](CO)N1C[C@H](C)[C@H](CN(C)S(=O)(=O)c2cccs2)Oc2ccc(NC(=O)Nc3ccc4c(c3)OCO4)cc2CC1=O,"inconclusive: 18.4 µM [inhibitor, single point]",
O=S(=O)(c1ccc(NC(=S)NN=Cc2ccccc2O)cc1)N1CCCCC1,active: 16.4 µM,
NC(Cc1ccc(C(F)(F)F)cc1)c1csc(Nc2cnccn2)n1 (stereo not drawn),"inconclusive: 20.6 µM [inhibitor, partial curve]",
Cc1ccc(OCCNC(=O)[C@H]2O[C@@H](n3cnc4c(N)ncnc43)[C@H](O)[C@@H]2O)cc1C,"inconclusive: 25.9 µM [inhibitor, single point]",
Nc1c2ccccc2nc2ccccc12,active: 9.2 µM,
COc1ccc([C@H]2CC(=O)C=C(c3ccc(Oc4ccccc4)cc3)C2)cc1OC,active: 9.2 µM,
CCN(CC)S(=O)(=O)c1cccc(NC(=O)c2ccc(-n3nc(C)cc3C)cc2)c1,"inconclusive: 10.3 µM [inhibitor, partial curve, poor fit]",
Cc1ccc(S(=O)(=O)c2ccc([N+](=O)[O-])cn2)cc1,active: 3.26 µM,
COC(=O)C1CCC(=O)N1C(c1ccc(OC)cc1)c1cc(OC)c(OC)c(OC)c1 (stereo not drawn),"inconclusive: 5.17 µM [inhibitor, partial curve]",
COc1ccc(C2CC(c3c(-c4ccccc4)c4cc(Cl)ccc4[nH]c3=O)=NN2S(C)(=O)=O)cc1OC (stereo not drawn),"inconclusive: 25.9 µM [inhibitor, single point]",
CCC(=O)NC(c1ccco1)c1cc(Cl)c2cccnc2c1O (stereo not drawn),,inactive: -29.8%
CCCCCC(=O)Nc1cccc(C2=NOC3(C2)C[C@H](C(N)=O)N(C(=O)c2ccccc2C(=O)c2ccccc2)C3)c1 (stereo partly drawn),"inconclusive: 20.6 µM [inhibitor, single point]",
Oc1c(CN2CCCCC2)cc(Br)c2cccnc12,active: 20.6 µM,
Cc1cc(N2CCN(c3ccccc3)CC2)n2cc(-c3ccccc3)nc2n1,"inconclusive: 16.4 µM [inhibitor, single point]",
COc1cccc(/C=N/Nc2ncnc(Cl)c2N)c1O,"inconclusive: 5.17 µM [inhibitor, partial curve]",
CC(C)NC(=O)N(C)C[C@H]1Oc2ccc(NS(=O)(=O)c3ccc(Cl)cc3)cc2CC(=O)N([C@@H](C)CO)C[C@@H]1C,,inactive: -9.05%
O=C(COc1ccc(Cl)cc1Cl)NCCSc1ccc(Cl)cc1,"inconclusive: 29.1 µM [inhibitor, single point]",
CCc1ccc(S(=O)(=O)Nc2c(NC3CCCCC3)c3ccccc3oc2=O)cc1,"inconclusive: 14.6 µM [inhibitor, partial curve]",
Cc1cccc(C)c1NS(=O)(=O)c1ccc(-c2cnc(C3CC3)o2)cc1,active: 2.59 µM,
Cc1cccc(NC(=O)Nc2ccc(C#N)cc2)n1,active: 6.51 µM,
CCOc1ccccc1-n1c(CNc2ccc(F)cc2)nnc1SCC(=O)NCc1ccco1,"inconclusive: 18.4 µM [inhibitor, single point]",
CC[C@]12c3[nH]c4ccc(Cl)cc4c3CCN1C(=O)[C@@H](CC(=O)NCc1cccc(C(F)(F)F)c1)C[C@@H]2C(=O)N1CCN(C(=O)C2CC2)CC1,,inactive: -77.3%
Cc1ccc(S(=O)(=O)Nc2cccc3cccnc23)c([N+](=O)[O-])c1,,inactive: -18.1%

# Sorted by number of heavy atoms (high to low): some entries from above.
SMILES,Potency,"activity, negative = inhibition"
COC(=O)C1CCC(=O)N1C(c1ccc(OC)cc1)c1cc(OC)c(OC)c(OC)c1 (stereo not drawn),"inconclusive: 5.17 µM [inhibitor, partial curve]",
COc1cccc(/C=N/Nc2ncnc(Cl)c2N)c1O,"inconclusive: 5.17 µM [inhibitor, partial curve]",
Cc1cccc(NC(=O)Nc2ccc(C#N)cc2)n1,active: 6.51 µM,

# — PubChem BioAssay AID720534 (National Center for Advancing Translational Sciences (NCATS), 2013)
